Values from PubChem BioAssay AID1259254 (NCATS, 2017)
Assay: 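Gene knock-downs that lead to re-replication, shown by excess G2 DNA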 (primary screen). System: human HCT116 colorectal cancer cells. Reagents: single siRNA against human genes. Duration: 3 days. Measurement: 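Nuclei stained with Hoechst and imaged; cell-cycle phase assigned by DNA content; G2 share scaled per plate, non-targeting siRNA 0%, GMNN siRNA 100%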. Reading the numbers: G2 robust z-score and G2 cells, % of GMNN control: higher = more G2 cells, more excess DNA replication; raw share of cells in G2: higher = larger share of cells with G2 DNA content. Hit rule: 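An siRNA counts as active if its G2 robust z-score lies at least 5 MADs above the screen median; here such calls match roughly 38% of GMNN control or more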.
Here is one part, drawn at random, of about 59,000 deposited reagents. About 1,550 of them (2.6%) were called active. 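G2 share is only a proxy for re-replication; each gene was hit by three separate siRNAs, and active genes were retested.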 Raw values vary from plate to plate and are shown uncorrected. Entries without a mark were called inactive. Reagents against one gene are numbered here. Reagent sequences are not shown. The record does not give: the amount of reagent.

| target gene | siRNA no. | G2 robust z-score | G2 cells, % of GMNN control | raw share of cells in G2 (%) |
| --- | --- | --- | --- | --- |
| OSBPL2 (GeneID 9885) | 1 | 2.75 | 22.3 | 13.8 |
| OSBPL2 (GeneID 9885) | 2 | -0.549 | -0.894 | 2.89 |
| OSBPL2 (GeneID 9885) | 3 | -0.566 | -1.02 | 4.82 |
| FBXO11 (GeneID 80204) | 1 | 0.948 | 9.64 | 9.44 |
| FBXO11 (GeneID 80204) | 2 | -1.17 | -5.26 | 2.29 |
| FBXO11 (GeneID 80204) | 3 | 0.299 | 5.07 | 6.66 |
| FRMD4A (GeneID 55691) | 1 | 0.217 | 4.5 | 6.25 |
| FRMD4A (GeneID 55691) | 2 | -1.19 | -5.37 | 1.91 |
| FRMD4A (GeneID 55691) | 3 | 1.79 | 15.5 | 8.1 |
| ZNF473 (GeneID 25888) | 1 | -0.0655 | 2.51 | 3.68 |
| ZNF473 (GeneID 25888) | 2 | -0.197 | 1.58 | 6.62 |
| ZNF473 (GeneID 25888) | 3 | -0.663 | -1.69 | 3.1 |
| KIDINS220 (GeneID 57498) | 1 | 0.862 | 9.03 | 7.91 |
| KIDINS220 (GeneID 57498) | 2 | 2 | 17.1 | 12.6 |
| KIDINS220 (GeneID 57498) | 3 | -0.274 | 1.04 | 3.36 |
| UBQLNL (GeneID 143630) | 1 | -0.934 | -3.6 | 1.81 |
| UBQLNL (GeneID 143630) | 2 | 4.02 | 31.2 | 14.3 |
| UBQLNL (GeneID 143630) | 3 | 6.46 (active) | 48.4 | 17.9 |
| SPDYC (GeneID 387778) | 1 | 0.4 | 5.78 | 5.75 |
| SPDYC (GeneID 387778) | 2 | 1.26 | 11.8 | 8.54 |
| SPDYC (GeneID 387778) | 3 | -0.865 | -3.12 | 3.3 |
| LOC646999 (GeneID 646999) | 1 | 0.162 | 4.11 | 4.75 |
| LOC646999 (GeneID 646999) | 2 | -0.623 | -1.42 | 2.59 |
| LOC646999 (GeneID 646999) | 3 | 0.631 | 7.4 | 6.57 |
| MGAT4A (GeneID 11320) | 1 | -0.562 | -0.986 | 5.97 |
| MGAT4A (GeneID 11320) | 2 | 2.65 | 21.6 | 11.4 |
| MGAT4A (GeneID 11320) | 3 | 0.943 | 9.6 | 7.15 |
| TGS1 (GeneID 96764) | 1 | -1.1 | -4.8 | 2.67 |
| TGS1 (GeneID 96764) | 2 | -0.398 | 0.17 | 5.75 |
| TGS1 (GeneID 96764) | 3 | -0.864 | -3.11 | 3.63 |
| SLC35C1 (GeneID 55343) | 1 | -1.44 | -7.15 | 1.78 |
| SLC35C1 (GeneID 55343) | 2 | 0.625 | 7.37 | 7.19 |
| SLC35C1 (GeneID 55343) | 3 | 0.307 | 5.12 | 4.77 |
| SAMTOR (GeneID 154743) | 1 | -0.684 | -1.85 | 2.94 |
| SAMTOR (GeneID 154743) | 2 | 2.64 | 21.6 | 10.2 |
| SAMTOR (GeneID 154743) | 3 | -0.641 | -1.54 | 2.27 |
| NEFH (GeneID 4744) | 1 | -0.0955 | 2.3 | 6.25 |
| NEFH (GeneID 4744) | 2 | 1.08 | 10.6 | 6.69 |
| NEFH (GeneID 4744) | 3 | -0.913 | -3.46 | 4.1 |
| ZNF649 (GeneID 65251) | 1 | -0.214 | 1.46 | 3.31 |
| ZNF649 (GeneID 65251) | 2 | -1.08 | -4.61 | 3.83 |
| ZNF649 (GeneID 65251) | 3 | 0.552 | 6.85 | 5.79 |
| LRRC49 (GeneID 54839) | 1 | -0.571 | -1.05 | 3.23 |
| LRRC49 (GeneID 54839) | 2 | 0.552 | 6.85 | 7.16 |
| LRRC49 (GeneID 54839) | 3 | 0.841 | 8.89 | 6.13 |
| CARD14 (GeneID 79092) | 1 | 0.278 | 4.92 | 6.09 |
| CARD14 (GeneID 79092) | 2 | -0.328 | 0.657 | 4.46 |
| CARD14 (GeneID 79092) | 3 | 5.76 (active) | 43.5 | 23.7 |
| CELF1 (GeneID 10658) | 1 | 2.16 | 18.2 | 9.72 |
| CELF1 (GeneID 10658) | 2 | -2.11 | -11.9 | 1.8 |
| CELF1 (GeneID 10658) | 3 | 0.1 | 3.67 | 7.29 |
| KRT15 (GeneID 3866) | 1 | 1.76 | 15.4 | 10.6 |
| KRT15 (GeneID 3866) | 2 | -1.43 | -7.1 | 2.98 |
| KRT15 (GeneID 3866) | 3 | 0.474 | 6.3 | 6.51 |
| HINT1 (GeneID 3094) | 1 | -0.128 | 2.07 | 5.47 |
| HINT1 (GeneID 3094) | 2 | 0.956 | 9.69 | 7.22 |
| HINT1 (GeneID 3094) | 3 | -1.48 | -7.47 | 1.25 |
| ALG5 (GeneID 29880) | 1 | -0.207 | 1.51 | 6.85 |
| ALG5 (GeneID 29880) | 2 | 1.09 | 10.6 | 7.71 |
| ALG5 (GeneID 29880) | 3 | 0.708 | 7.95 | 6.59 |
| HHAT (GeneID 55733) | 1 | 1.23 | 11.6 | 8.6 |
| HHAT (GeneID 55733) | 2 | -0.505 | -0.583 | 4.09 |
| HHAT (GeneID 55733) | 3 | 1.48 | 13.4 | 12.3 |
| ALKAL2 (GeneID 285016) | 1 | 0.213 | 4.47 | 5.27 |
| ALKAL2 (GeneID 285016) | 2 | 0.997 | 9.98 | 6.91 |
| ALKAL2 (GeneID 285016) | 3 | 2.6 | 21.3 | 9.73 |
| UBAP2L (GeneID 9898) | 1 | 0.961 | 9.73 | 9.73 |
| UBAP2L (GeneID 9898) | 2 | 0.000778 | 2.97 | 5.18 |
| UBAP2L (GeneID 9898) | 3 | 3.57 | 28.1 | 13.6 |

Limited to “G2 cells, % of GMNN control” (10 entries from above):
UBQLNL (GeneID 143630) #2	31.2
UBQLNL (GeneID 143630) #3	48.4 (active)
SPDYC (GeneID 387778) #1	5.78
SPDYC (GeneID 387778) #2	11.8
SPDYC (GeneID 387778) #3	-3.12
LOC646999 (GeneID 646999) #1	4.11
LOC646999 (GeneID 646999) #2	-1.42
LOC646999 (GeneID 646999) #3	7.4
MGAT4A (GeneID 11320) #1	-0.986
MGAT4A (GeneID 11320) #2	21.6
